From US8778935B2 (Centro Nacional de Investigaciones Oncologicas (CNIO), priority 2009, dated 2014) come the findings set out here.

By UniProt entry, the sequences of proteins in these tests, tags left out.
UniProt P42336, whole entry: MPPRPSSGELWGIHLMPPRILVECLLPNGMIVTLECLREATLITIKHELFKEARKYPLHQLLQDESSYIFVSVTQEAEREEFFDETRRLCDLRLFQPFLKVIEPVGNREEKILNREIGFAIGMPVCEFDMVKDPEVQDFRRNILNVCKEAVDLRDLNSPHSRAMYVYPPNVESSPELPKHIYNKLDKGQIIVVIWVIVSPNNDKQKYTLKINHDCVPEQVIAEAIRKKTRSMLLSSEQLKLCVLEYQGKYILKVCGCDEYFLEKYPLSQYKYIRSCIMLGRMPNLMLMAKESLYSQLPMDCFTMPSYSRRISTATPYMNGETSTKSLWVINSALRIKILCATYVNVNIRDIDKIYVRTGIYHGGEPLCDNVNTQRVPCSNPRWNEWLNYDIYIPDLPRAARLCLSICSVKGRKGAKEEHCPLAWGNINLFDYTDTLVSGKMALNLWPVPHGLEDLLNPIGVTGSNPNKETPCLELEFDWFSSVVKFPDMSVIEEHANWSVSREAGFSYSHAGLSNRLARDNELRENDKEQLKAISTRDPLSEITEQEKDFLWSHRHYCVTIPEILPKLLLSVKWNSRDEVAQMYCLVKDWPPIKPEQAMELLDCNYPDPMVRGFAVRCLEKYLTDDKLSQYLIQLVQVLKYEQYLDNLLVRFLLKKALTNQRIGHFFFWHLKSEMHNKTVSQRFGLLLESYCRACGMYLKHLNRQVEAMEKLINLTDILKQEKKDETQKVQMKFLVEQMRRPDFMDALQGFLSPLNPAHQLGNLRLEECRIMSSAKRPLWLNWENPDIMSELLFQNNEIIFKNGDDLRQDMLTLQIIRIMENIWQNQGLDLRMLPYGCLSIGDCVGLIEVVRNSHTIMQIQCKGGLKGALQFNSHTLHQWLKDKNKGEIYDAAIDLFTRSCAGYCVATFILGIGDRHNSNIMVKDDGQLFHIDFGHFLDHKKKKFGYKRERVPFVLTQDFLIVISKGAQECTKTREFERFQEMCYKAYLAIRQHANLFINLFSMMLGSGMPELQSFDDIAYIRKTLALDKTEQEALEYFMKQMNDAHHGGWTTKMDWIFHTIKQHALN
UniProt P27986, whole entry partner: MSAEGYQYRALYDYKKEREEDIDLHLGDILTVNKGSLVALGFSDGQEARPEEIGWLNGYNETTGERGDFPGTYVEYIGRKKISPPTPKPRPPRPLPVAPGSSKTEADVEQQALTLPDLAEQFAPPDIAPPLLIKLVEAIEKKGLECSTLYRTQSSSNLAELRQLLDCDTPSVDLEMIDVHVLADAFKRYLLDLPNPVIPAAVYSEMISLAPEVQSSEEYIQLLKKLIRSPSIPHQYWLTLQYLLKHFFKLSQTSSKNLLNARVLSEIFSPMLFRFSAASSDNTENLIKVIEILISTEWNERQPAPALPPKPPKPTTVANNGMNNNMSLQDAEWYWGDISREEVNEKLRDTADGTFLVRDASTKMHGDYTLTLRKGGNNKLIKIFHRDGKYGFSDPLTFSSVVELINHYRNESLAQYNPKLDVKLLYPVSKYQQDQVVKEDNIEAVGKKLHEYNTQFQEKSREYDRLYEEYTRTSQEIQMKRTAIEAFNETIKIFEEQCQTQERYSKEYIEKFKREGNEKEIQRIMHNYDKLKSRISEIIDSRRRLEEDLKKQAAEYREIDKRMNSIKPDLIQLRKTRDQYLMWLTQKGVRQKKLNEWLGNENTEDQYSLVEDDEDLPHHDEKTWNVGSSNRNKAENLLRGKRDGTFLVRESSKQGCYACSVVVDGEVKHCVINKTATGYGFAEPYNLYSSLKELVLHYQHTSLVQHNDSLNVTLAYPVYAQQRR

The structures appear in SMILES notation. Structures were worked out from names or drawings and are uncertain.

The assay has as its target PI3K (p110α/p85α) (Homo sapiens, UniProt P42336). Briefly: PI3K Activity Assay (ADP Hunter Plus). Format: biochemical. The conditions noted are these: read-out: PI3Kα IC50; quantitative results of Table 4.

`COCCCNC(=O)c1cn2cc(-c3cccnc3)nc(N3CCOCC3)c2n1`: the IC50 worked out at 0.295 µM. To `COCCNC(=O)c1cn2cc(-c3cccnc3)nc(N3CCOCC3)c2n1` [2-154] belongs 0.617 µM.
